The test has as its target EphA2 receptor (human) (UniProt P29317). Kind of test: co-immunoprecipitation with anti-EphA7 antibody from lysates of Raji and DoHH2 cells treated with EphA7^Fc, blot probed for EphA2.

Protein sequences, listed by entry. Tags and fused reporters are not part of them. Residues count along the entry.
UniProt P29317, residues 24-976: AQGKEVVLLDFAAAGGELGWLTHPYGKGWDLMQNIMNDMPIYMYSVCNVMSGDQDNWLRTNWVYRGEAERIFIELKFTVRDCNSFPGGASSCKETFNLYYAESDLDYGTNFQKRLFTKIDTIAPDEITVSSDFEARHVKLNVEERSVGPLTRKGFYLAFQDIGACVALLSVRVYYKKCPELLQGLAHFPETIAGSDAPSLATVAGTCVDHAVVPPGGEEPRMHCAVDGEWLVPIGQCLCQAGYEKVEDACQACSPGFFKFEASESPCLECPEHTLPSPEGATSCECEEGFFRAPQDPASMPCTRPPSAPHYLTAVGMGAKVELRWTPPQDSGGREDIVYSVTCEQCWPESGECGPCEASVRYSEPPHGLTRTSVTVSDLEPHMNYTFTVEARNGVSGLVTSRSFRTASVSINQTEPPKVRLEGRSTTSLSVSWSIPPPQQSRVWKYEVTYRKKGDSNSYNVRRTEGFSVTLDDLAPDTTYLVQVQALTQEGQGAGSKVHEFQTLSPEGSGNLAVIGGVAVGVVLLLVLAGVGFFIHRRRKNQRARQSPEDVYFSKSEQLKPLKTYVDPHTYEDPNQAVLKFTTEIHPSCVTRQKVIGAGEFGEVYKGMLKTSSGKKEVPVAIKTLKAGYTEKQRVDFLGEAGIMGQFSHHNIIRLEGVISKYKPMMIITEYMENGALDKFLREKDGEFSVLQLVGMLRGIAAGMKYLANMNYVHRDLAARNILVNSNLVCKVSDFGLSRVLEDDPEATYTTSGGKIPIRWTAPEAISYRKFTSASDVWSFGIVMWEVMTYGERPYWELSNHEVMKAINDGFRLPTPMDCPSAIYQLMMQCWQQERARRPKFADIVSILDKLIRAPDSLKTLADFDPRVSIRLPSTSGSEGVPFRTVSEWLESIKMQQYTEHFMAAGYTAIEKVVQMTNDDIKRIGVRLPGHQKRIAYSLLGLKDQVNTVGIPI
UniProt Q61772, residues 31-525: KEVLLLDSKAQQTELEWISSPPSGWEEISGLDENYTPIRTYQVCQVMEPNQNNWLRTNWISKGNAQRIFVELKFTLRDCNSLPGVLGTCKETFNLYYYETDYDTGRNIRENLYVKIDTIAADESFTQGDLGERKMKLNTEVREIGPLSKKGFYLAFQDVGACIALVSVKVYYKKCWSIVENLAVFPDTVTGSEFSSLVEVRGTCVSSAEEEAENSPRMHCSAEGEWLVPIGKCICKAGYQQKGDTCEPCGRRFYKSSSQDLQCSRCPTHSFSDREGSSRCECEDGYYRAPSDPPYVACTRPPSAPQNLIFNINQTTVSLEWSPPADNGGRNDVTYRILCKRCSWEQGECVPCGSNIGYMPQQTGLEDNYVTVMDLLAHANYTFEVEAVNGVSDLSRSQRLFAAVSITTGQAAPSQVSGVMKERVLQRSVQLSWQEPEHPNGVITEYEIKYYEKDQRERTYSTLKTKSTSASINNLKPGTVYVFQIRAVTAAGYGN

No constants are given. Whether binding was seen depends on the method and setting. Binding seen in cells or lysates may run through a third protein. Some binding calls cover weakened binding; strength is not graded here.

Consider “immunoglobulin Fc fragment-tagged EphA7^ECD (EphA7^Fc) (from UniProt Q61772 31-525) (Fc fusion)”, for which the binding entry was “binds”.

The values are drawn from patent publication US20170334966A1.
